Source: PMC10066299
These are yes or no findings as the source states them, for the method shown. Some results given as binding are weak or reduced against the parent protein; the word gives no strength.

Target: T1, IFT122 (human) (UniProt Q9HBG6)
T1 sequence: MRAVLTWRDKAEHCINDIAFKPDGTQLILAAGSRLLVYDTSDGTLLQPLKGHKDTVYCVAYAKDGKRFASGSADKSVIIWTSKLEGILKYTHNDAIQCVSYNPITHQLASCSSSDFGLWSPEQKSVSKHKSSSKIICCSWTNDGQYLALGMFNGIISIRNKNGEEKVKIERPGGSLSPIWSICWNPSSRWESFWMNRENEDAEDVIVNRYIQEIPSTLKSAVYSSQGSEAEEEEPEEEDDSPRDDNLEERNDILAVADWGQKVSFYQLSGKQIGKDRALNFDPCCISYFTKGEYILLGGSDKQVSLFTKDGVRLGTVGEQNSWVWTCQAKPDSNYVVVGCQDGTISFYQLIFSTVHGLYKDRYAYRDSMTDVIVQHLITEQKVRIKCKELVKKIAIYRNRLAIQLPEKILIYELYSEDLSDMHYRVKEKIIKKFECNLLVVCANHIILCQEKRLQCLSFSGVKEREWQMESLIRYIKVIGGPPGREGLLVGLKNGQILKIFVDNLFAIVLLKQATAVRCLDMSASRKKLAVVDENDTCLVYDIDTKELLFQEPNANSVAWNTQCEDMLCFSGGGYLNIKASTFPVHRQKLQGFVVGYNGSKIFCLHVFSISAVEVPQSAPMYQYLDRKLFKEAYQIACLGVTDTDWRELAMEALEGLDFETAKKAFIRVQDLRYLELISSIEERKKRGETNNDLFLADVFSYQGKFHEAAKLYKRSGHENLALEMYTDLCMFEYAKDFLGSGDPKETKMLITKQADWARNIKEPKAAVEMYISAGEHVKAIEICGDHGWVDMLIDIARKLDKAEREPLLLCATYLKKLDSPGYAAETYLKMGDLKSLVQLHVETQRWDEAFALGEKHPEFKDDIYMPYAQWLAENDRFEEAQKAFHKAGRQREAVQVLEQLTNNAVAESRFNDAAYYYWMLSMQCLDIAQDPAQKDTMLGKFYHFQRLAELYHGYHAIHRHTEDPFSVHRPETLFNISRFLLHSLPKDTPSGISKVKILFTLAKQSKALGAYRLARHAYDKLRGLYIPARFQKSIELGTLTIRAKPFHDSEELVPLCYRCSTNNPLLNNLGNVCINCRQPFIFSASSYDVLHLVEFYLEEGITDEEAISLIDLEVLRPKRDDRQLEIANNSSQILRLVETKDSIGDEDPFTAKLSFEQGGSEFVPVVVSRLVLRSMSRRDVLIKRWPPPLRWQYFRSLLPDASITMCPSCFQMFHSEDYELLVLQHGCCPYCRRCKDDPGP
Assay: cryo-EM structure; IFT-A complex co-expressed in HEK293F and co-purified; composite map from the IFT-A and IFT-A (-IFT139) datasets; 20 mM Tris-HCl pH 8.0, 200 mM NaCl, 2 mM DTT, 2 mM FFC-8 added; both purified

- binding: binds
B1: IFT121 (WDR35) (protein, UniProt Q9P2L0 1-1181)
chain: MFFYLSKKISIPNNVKLQCVSWNKEQGFIACGGEDGLLKVLKLETQTDDAKLRGLAAPSNLSMNQTLEGHSGSVQVVTWNEQYQKLTTSDENGLIIVWMLYKGSWIEEMINNRNKSVVRSMSWNADGQKICIVYEDGAVIVGSVDGNRIWGKDLKGIQLSHVTWSADSKVLLFGMANGEIHIYDNQGNFMIKMKLSCLVNVTGAISIAGIHWYHGTEGYVEPDCPCLAVCFDNGRCQIMRHENDQNPVLIDTGMYVVGIQWNHMGSVLAVAGFQKAAMQDKDVNIVQFYTPFGEHLGTLKVPGKEISALSWEGGGLKIALAVDSFIYFANIRPNYKWGYCSNTVVYAYTRPDRPEYCVVFWDTKNNEKYVKYVKGLISITTCGDFCILATKADENHPQEENEMETFGATFVLVLCNSIGTPLDPKYIDIVPLFVAMTKTHVIAASKEAFYTWQYRVAKKLTALEINQITRSRKEGRERIYHVDDTPSGSMDGVLDYSKTIQGTRDPICAITASDKILIVGRESGTIQRYSLPNVGLIQKYSLNCRAYQLSLNCNSSRLAIIDISGVLTFFDLDARVTDSTGQQVVGELLKLERRDVWDMKWAKDNPDLFAMMEKTRMYVFRNLDPEEPIQTSGYICNFEDLEIKSVLLDEILKDPEHPNKDYLINFEIRSLRDSRALIEKVGIKDASQFIEDNPHPRLWRLLAEAALQKLDLYTAEQAFVRCKDYQGIKFVKRLGKLLSESMKQAEVVGYFGRFEEAERTYLEMDRRDLAIGLRLKLGDWFRVLQLLKTGSGDADDSLLEQANNAIGDYFADRQKWLNAVQYYVQGRNQERLAECYYMLEDYEGLENLAISLPENHKLLPEIAQMFVRVGMCEQAVTAFLKCSQPKAAVDTCVHLNQWNKAVELAKNHSMKEIGSLLARYASHLLEKNKTLDAIELYRKANYFFDAAKLMFKIADEEAKKGSKPLRVKKLYVLSALLIEQYHEQMKNAQRGKVKGKSSEATSALAGLLEEEVLSTTDRFTDNAWRGAEAYHFFILAQRQLYEGCVDTALKTALHLKDYEDIIPPVEIYSLLALCACASRAFGTCSKAFIKLKSLETLSSEQKQQYEDLALEIFTKHTSKDNRKPELDSLMEGGEGKLPTCVATGSPITEYQFWMCSVCKHGVLAQEISHYSFCPLCHSPVG
